The nature of the assay: qHTS Assay for Lipid Storage Modulators in Drosophila S3 Cells.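 For cell number change: cells counted by Cell Tracker Red CMTPX staining in the red channel.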 The note with it: BODIPY lipid droplet fluorescence, 18-24 h; for cell number change: measured here: cell count max response, cells fed with added oleic acid. The procedure, abridged:
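Drosophila S3 cells loaded with oleic acid (400 uM, as added) and compounds at several concentrations; lipid droplets imaged by 488-nm laser-scanning cytometry, 500–530 nm intensity and object ratio to cell channel. Percent activity normalized to 20 uM Triacsin C.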
In general terms: Quantitative high-throughput screening tests each substance at several concentrations.

Where [1] appears, read: measured here: lipid fluorescence (Fed channel) AC50, cells fed with added oleic acid.
The mark [2] stands for this setting: measured here: cell number channel AC50, cells fed with added oleic acid.

For 17 compounds, cell number change and AC50 results are on record in PubChem BioAssay AID2685 (National Center for Advancing Translational Sciences (NCATS), 2010).

The structures appear in SMILES notation. Some of the results follow. Shown are side measurements of this screen, not its main read-out; they come without a call. The list favours compounds with an active or inconclusive main result. Potencies come from curve fits of mixed quality, noted in brackets.

For orientation: AC50 means the concentration at which the activity in the assay is half-maximal. For `O=C(OCc1cccc(Cl)c1)c1cc(S(=O)(=O)N2CCCCC2)ccc1N1CCOCC1`, the cell number change was -17.8%. Besides, the half-maximal activity concentration (AC50) under setting [1] was 29.1 µM [rising, single point]. On to `COc1ccc(NC(=O)Cn2c(-c3ccc(OC)cc3)cn(-c3ccc(C)cc3)c2=O)cc1`, for which the cell number change is 26.2%. In addition, the AC50 under setting [1] was 5.8 µM [rising, partial curve].

For `O=C(CC1(O)C(=O)N(Cc2ccccc2)c2ccccc21)c1ccncc1` (stereo not given), the cell number change was 7.26%. For `CN1C(=O)CSC1=Nc1cccc(C(=O)O)c1`, the cell number change is 4.76%. On to `Cc1cccc(NC(=O)C2CCN(c3ncnc4c3nc3n4CCCCC3)CC2)n1`, for which the cell number change was -24.1%. For the same compound, under setting [1], the AC50 is 6.51 µM [falling, single point]. Consider `COc1ccc(C(=O)Nc2cccc(-c3ccc(N4CCOCC4)nn3)c2)cc1`, for which, under setting [1], the AC50 was 4.11 µM [falling, single point]. As for `COc1ccc([N+](=O)[O-])cc1NCC(=O)Nc1cccc(S(=O)(=O)N2CCCC2)c1`, the cell number change was -6.02%. On the same count and under the same terms, under `CCOC(=O)c1ccc(NC(=O)Cn2c(C)nc3c(sc(=S)n3CC)c2=O)cc1` stands 16.2%. In the case of `CCOC(=O)[C@H]1[C@H]2COc3ccc(Cl)cc3[C@@H]2N2C(=O)c3ccc(C)cc3NC(=O)[C@@]12C`, the cell number change turned out to be 9.17%. Further, under setting [1], the AC50 was 14.6 µM [rising, partial curve, poor fit]. As to `CCOc1ccc(-c2c(C(=O)N/N=C/c3cccs3)nnn2-c2nonc2N)cc1`, the AC50 under setting [1] is 29.1 µM [rising, single point]. Turning to `O=C(CSc1nnc(-c2cccnc2)o1)OC1CCCCC1`, the cell number change was -194%. Further, the concentration at half-maximal activity (AC50) under setting [2] was 29.1 µM [falling, single point]. In addition, under setting [1], the AC50 is 29.1 µM [falling, single point]. In the case of `COc1ccc(N2C(=O)c3ccc(C(=O)Nc4ccccc4OC)cc3C2=O)cc1`, the cell number change was -13.8%. Regarding `O=C(O)c1cccc(NS(=O)(=O)c2ccc3nnn(O)c3c2)c1`, the cell number change was -30%. Moreover, under setting [2], the AC50 is 3.26 µM [falling, full curve]. Under setting [1], the AC50 was 2.91 µM [falling, full curve].

On to `O=C(N/N=C/c1cc(Br)c(O)c(Br)c1)C1CC1`, for which the cell number change is -5.13%. In addition, the AC50 under setting [1] was 29.1 µM [falling, single point]. On to `CN(Cc1nc2ccccc2s1)C(=O)c1ccc(F)cc1`, for which the cell number change was 32.1%. Further, under setting [2], the half-maximal activity concentration (AC50) was 0.13 µM [rising, full curve]. Besides, the half-maximal activity concentration (AC50) under setting [1] was 1.16 µM [rising, single point]. Take `CCN(C(=O)COC(=O)c1sccc1C)c1c(N)n(Cc2ccccc2)c(=O)[nH]c1=O`: the cell number change was -41%. Moreover, the concentration at half-maximal activity (AC50) under setting [2] was 29.1 µM [falling, partial curve, poor fit]. Turning to `Cc1ccccc1C[n+]1cccc2ccccc21`, the cell number change amounted to 2.3%. The AC50 under setting [1] is 1.84 µM [rising, partial curve].
